Assay results as given in patent US20220338473A1, “USE OF BENZYL ALCOHOL AS A HERBICIDE” (INNOVI, priority 2019, published 2022).

Test system: Barley and rapeseed seeds
Experiment: Intercrop herbicide activity: seeding period after soil treatment
Format: in vivo

## OCc1ccccc1 [benzyl alcohol]
Potting soil treated with 100 L/Ha pure benzyl alcohol
  Days of waiting before seeding (seeding period when 70% of the seeds sown germinate): 5 days
Potting soil treated with 200 L/Ha pure benzyl alcohol
  Days of waiting before seeding (seeding period when 70% of the seeds sown germinate): 7 days
Potting soil treated with 300 L/Ha pure benzyl alcohol
  Days of waiting before seeding (seeding period when 70% of the seeds sown germinate): 15 days
Potting soil treated with less than 100 L/Ha pure benzyl alcohol
  Days of waiting before seeding (seeding period when 70% of the seeds sown germinate): 5 days
Potting soil treated with more than 300 L/Ha pure benzyl alcohol
  Days of waiting before seeding (seeding period when 70% of the seeds sown germinate): 15 days
